Data from the primary screen of doi:10.1371/journal.pone.0140310, rounded.

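The test systems are human melanoma cell lines, treated with two drugs together for 72 h and then stained and imaged. The read-out is cell count (nuclei) in % of the DMSO control; lower values mean stronger growth inhibition or killing. Concentrations were fixed for each drug; these are the higher of two levels. The file gives one value for each pair and line, without errors, so small differences may be noise.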 This is part of the screen, not chosen by result.

All values are for the listed drug together with BI-78D3 (1 µM): O=c1[nH]nc(Sc2ncc([N+](=O)[O-])s2)n1-c1ccc2c(c1)OCCO2

With Nc1ncn([C@H]2C[C@H](O)[C@@H](CO)O2)c(=O)n1 at 0.5 µM the screen read COLO 800: 74.5; C32: 87.4. With Clc1ccc(Nc2nnc(Cc3ccncc3)c3ccccc23)cc1 at 10 µM the screen read COLO 800: 79.8; C32: 73.3. With C[C@]12O[C@H](C[C@]1(O)CO)n1c3ccccc3c3c4c(c5c6ccccc6n2c5c31)CNC4=O at 0.02 µM the screen read COLO 800: 72.3; C32: 98.8. With Cc1cc(SCc2sc(-c3ccc(C(F)(F)F)c(F)c3)nc2C)ccc1OCC(=O)O at 10 µM the screen read COLO 800: 123; C32: 97.6. Results for CCCCCCCCc1ccc(CCC(N)(CO)CO)cc1 at 10 µM are COLO 800: 10.0; C32: 14.2. Results for O=C(O)c1ccc(-c2c[nH]c3ncc(-c4ccccc4)cc23)cc1C1CCCC1 at 0.8 µM are COLO 800: 60.6; C32: 93.0.

With Cn1c(=O)n(-c2ccc(C(C)(C)C#N)cc2)c2c3cc(-c4cnc5ccccc5c4)ccc3ncc21 at 0.02 µM the screen read COLO 800: 61.8; C32: 93.6. For CC(C)(C)c1cnc(CSc2cnc(NC(=O)C3CCNCC3)s2)o1 at 0.05 µM the values were COLO 800: 82.5; C32: 72.1. Results for O=C(O)c1ccc2c(c1)nc(Nc1cccc(Cl)c1)c1ccncc12 at 2 µM are COLO 800: 59.9; C32: 97.4. COc1cc2c(Oc3ccc4[nH]c(C)cc4c3F)ncnc2cc1OCCCN1CCCC1 at 2 µM gave COLO 800: 83.6; C32: 74.5. COc1cc([C@@H]2c3cc4c(cc3[C@@H](O[C@@H]3O[C@@H]5CO[C@@H](C)O[C@H]5[C@H](O)[C@H]3O)[C@H]3COC(=O)[C@H]23)OCO4)cc(OC)c1O at 0.1 µM gave COLO 800: 60.6; C32: 83.3. With C[C@@H]1CCN(C(=O)CC#N)C[C@@H]1N(C)c1ncnc2[nH]ccc12 at 5 µM the screen read COLO 800: 86.9; C32: 89.8.

CNC(=O)c1cc(Oc2ccc(NC(=O)Nc3ccc(Cl)c(C(F)(F)F)c3)cc2)ccn1 at 2 µM gave COLO 800: 104; C32: 85.3. Cn1cc(C2=C(c3cn(C4CCN(Cc5ccccn5)CC4)c4ccccc34)C(=O)NC2=O)c2ccccc21 at 4 µM gave COLO 800: 140; C32: 106. Results for Cn1nnc2c(C(N)=O)ncn2c1=O at 10 µM are COLO 800: 92.6; C32: 93.3. With Nc1ccn([C@@H]2O[C@H](CO)[C@@H](O)C2(F)F)c(=O)n1 at 0.002 µM the screen read COLO 800: 28.3; C32: 88.2. Results for C/C(O)=C(\C#N)C(=O)Nc1cc(Br)ccc1Br at 10 µM are COLO 800: 90.5; C32: 89.0. CN(C)S(=O)(=O)c1ccc2c(c1)/C(=C/c1cc3c([nH]1)CCCC3)C(=O)N2 at 2 µM gave COLO 800: 40.0; C32: 71.5.

For O=C(Nc1cccc(Cl)c1)Nc1ncc(CCNc2ncnc3ccsc23)s1 at 0.004 µM the values were COLO 800: 51.6; C32: 71.0. With CN(c1ncccc1CNc1nc(Nc2ccc3c(c2)CC(=O)N3)ncc1C(F)(F)F)S(C)(=O)=O at 0.4 µM the screen read COLO 800: 64.0; C32: 53.4.

Repeated from the top, 2 entries:

Second drug,COLO 800,C32
Nc1ncn([C@H]2C[C@H](O)[C@@H](CO)O2)c(=O)n1 at 0.5 µM,74.5,87.4
Clc1ccc(Nc2nnc(Cc3ccncc3)c3ccccc23)cc1 at 10 µM,79.8,73.3